The list shows only some results of the screen, not a fair sample: it gathers tests that were run many times, whatever their T/C, doses with no T/C, and many T/C values between a quarter and a half above the control. Other doses and runs of a compound stand elsewhere. T/C is the treated group as % of the vehicle group. Some entries give survivors of the animals treated and no T/C: the source holds a T/C of zero for them, seemingly a mark for toxic or unscored doses. Some doses without a T/C left all or most animals alive at the check, yet need not have been tolerated: the source hardly ever lists a survival T/C far under the control, and the zero likely stands for such cases as well. Counts of survivors are from the toxicity check (mostly the fifth day) where no day follows; animals may have died later. Schedules are NCI's codes, read here as Q, the interval in days (D) or hours (H), X, the number of doses. For survival time, this PubChem deposit counts one and a half times the control or more as active, and values a quarter to a half above the control carry no call in these data; other NCI protocols may use other cut-offs. Some entries were tested several times; their values stand side by side, smallest first. Starred links: 1 amine or outer side, 2 acyl side, 3 side chain; linkers in the order of their positions; H or OH if unused. Positions of bridges follow the written chain, without caps; N, C: chain ends. Non-standard residues stand in square brackets, D forms with d. Residues, ends and D or L forms follow the SMILES beside them. Chains are numbered I, II in the order given. Actinocin(1to9) = Cc1c2oc3c(C)ccc(C(=O)[*:2])c3nc-2c(C(=O)[*:1])c(N)c1=O; NMeV = CN[CH](C(=O)O)C(C)C; Sar = CNCC(=O)O
Tested on: BDF1 mice, P388 leukemia ip, median survival T/C
Experiment: NCI In Vivo Anticancer Drug Screen. Data for tumor model P388 Leukemia (intraperitoneal) in B6D2F1 (BDF1) mice
Details: T/C endpoint: median survival time, higher T/C = longer survival
Method in brief: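 Compound-treated tumour-bearing mice were compared with vehicle-treated controls. Survival was recorded, and the value is the treated-group measurement divided by the control-group measurement (T/C).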

[1] = dose: 12.5 mg/kg/injection, schedule: Q01DX009 (ip), vehicle: saline with Tween-80
[2] = dose: 16.5 mg/kg/injection, schedule: Q01DX009 (ip), vehicle: saline
[3] = dose: 25.0 mg/kg/injection, schedule: Q01DX009 (ip), vehicle: saline with Tween-80
[4] = dose: 50.0 mg/kg/injection, schedule: Q01DX009 (ip), vehicle: saline with Tween-80
[5] = dose: 200.0 mg/kg/injection, schedule: Q01DX009 (ip), vehicle: saline with Tween-80
[6] = dose: 400.0 mg/kg/injection, schedule: Q01DX009 (ip), vehicle: saline with Tween-80
[7] = dose: 25.0 mg/kg/injection, schedule: Q01DX009 (ip), vehicle: saline
[8] = dose: 50.0 mg/kg/injection, schedule: Q01DX009 (ip), vehicle: saline
[9] = dose: 400.0 mg/kg/injection, schedule: Q04DX003 (ip), vehicle: saline with Tween-80

SMILES: CN(C)c1ccc(C(N)=O)cn1
- survivor count (dose: 8.25 mg/kg/injection, schedule: Q01DX009 (ip), vehicle: saline): 6 of 6
- survivor count [1]: 6 of 6
- survivor count [2]: 6 of 6
- survivor count [3]: 5 of 6
- T/C (dose: 27.0 mg/kg/injection, schedule: Q04DX003 (ip), vehicle: saline): 127 % of control
- survivor count [4]: 4 of 6

SMILES: COc1cc2c(c(OC)c1OC)-c1ccc(N)c(=O)cc1[C@@H](NC(C)=O)CC2
- T/C (dose: 1.0 mg/kg/injection, schedule: Q01DX010 (ip), vehicle: saline): 127 % of control
- survivor count (dose: 4.0 mg/kg/injection, schedule: Q01DX010 (ip), vehicle: saline): 8 of 8

SMILES: Cn1c(C(Cl)Cl)nc2ccccc2c1=O
- survivor count (dose: 255.0 mg/kg/injection, schedule: Q01DX009 (ip), vehicle: Klucel (hydroxypropylcellulose) (HPC)): 3 of 6
- survivor count (dose: 385.0 mg/kg/injection, schedule: Q01DX009 (ip), vehicle: Klucel (hydroxypropylcellulose) (HPC)): 4 of 6

SMILES: CC1C=CCC(C)(C)C1 (stereo not given)
- survivor count [5]: 6 of 6
- survivor count [6]: 1 of 6

SMILES: ClCC1CNC(c2ccccc2)O1 (stereo not given)
- survivor count (dose: 50.0 mg/kg/injection, schedule: Q04DX003 (ip), vehicle: saline with Tween-80): 1 of 6

SMILES: CCCCn1c(Cl)c(/C=N\Nc2ccccc2[N+](=O)[O-])c2ccccc21
- survivor count (dose: 100.0 mg/kg/injection, schedule: Q01DX001 (ip), vehicle: Klucel (hydroxypropylcellulose) (HPC)): 6 of 6
- survivor count (dose: 400.0 mg/kg/injection, schedule: Q01DX001 (ip), vehicle: Klucel (hydroxypropylcellulose) (HPC)): 6 of 6

SMILES: CCCCCCCCCC(O)CCCCCC (stereo not given)
- survivor count (dose: 50.0 mg/kg/injection, schedule: Q01DX009 (ip), vehicle: other): 6 of 6
- T/C (dose: 200.0 mg/kg/injection, schedule: Q01DX009 (ip), vehicle: other): 125 % of control
- survivor count (dose: 400.0 mg/kg/injection, schedule: Q04DX003 (ip), vehicle: other): 5 of 6

SMILES: CC(C)Sc1nc(N)nc2nc[nH]c12
- survivor count (dose: 100.0 mg/kg/injection, schedule: Q01DX009 (ip), vehicle: Klucel (hydroxypropylcellulose) (HPC)): 6 of 6
- survivor count (dose: 200.0 mg/kg/injection, schedule: Q01DX009 (ip), vehicle: Klucel (hydroxypropylcellulose) (HPC)): 0 of 6
- survivor count (dose: 400.0 mg/kg/injection, schedule: Q04DX003 (ip), vehicle: Klucel (hydroxypropylcellulose) (HPC)): 2 of 6

SMILES: O=C(CCCCC(=O)Nc1ccc(C(=O)Nc2cc(C3=NCCN3)cc(C3=NCCN3)c2)cc1)Nc1ccc(C(=O)Nc2cc(C3=NCCN3)cc(C3=NCCN3)c2)cc1
- T/C [7]: 129 % of control
- T/C [8]: 125 % of control
- T/C (dose: 66.0 mg/kg/injection, schedule: Q04DX003 (ip), vehicle: saline): 129 % of control
- T/C (dose: 67.0 mg/kg/injection, schedule: Q01DX009 (ip), vehicle: saline): 126 % of control
- T/C (dose: 100.0 mg/kg/injection, schedule: Q01DX009 (ip), vehicle: saline): 133, 138, 145 % of control
- T/C (dose: 100.0 mg/kg/injection, schedule: Q04DX003 (ip), vehicle: saline): 125 and 133 % of control
- T/C (dose: 150.0 mg/kg/injection, schedule: Q01DX009 (ip), vehicle: saline): 130 % of control
- survivor count (dose: 400.0 mg/kg/injection, schedule: Q04DX003 (ip), vehicle: saline): 1 of 6

SMILES: CS(=O)(=O)OCCN(CCOS(C)(=O)=O)c1ccc(C=Nc2ccc3oc(=O)ccc3c2)cc1
- T/C (dose: 200.0 mg/kg/injection, schedule: Q04DX003 (ip), vehicle: saline with Tween-80): 145 % of control
- survivor count (dose: 300.0 mg/kg/injection, schedule: Q04DX003 (ip), vehicle: saline with Tween-80): 6 of 6
- survivor count [9]: 6 of 6

SMILES: Cc1ccc(C(=O)Cl)cc1S(=O)(=O)F
- survivor count [1]: 6 of 6
- survivor count [4]: 5 of 6
- survivor count [5]: 2 of 6
- survivor count [9]: 0 of 6

SMILES: Nc1cc(I)c2cccnc2c1O
- T/C [7]: 133 % of control
- T/C [8]: 145 % of control

SMILES: CS(=O)(=O)OCCCCCCCCCOS(C)(=O)=O
- T/C (dose: 75.0 mg/kg/injection, schedule: Q04DX003 (ip), vehicle: saline with Tween-80): 127 % of control

SMILES: CCO/C=C1\SC(=S)N(c2ccc(C(=O)O)cc2)C1=O
- T/C (dose: 11.0 mg/kg/injection, schedule: Q01DX009 (ip), vehicle: saline with Tween-80): 130 % of control
- T/C (dose: 16.5 mg/kg/injection, schedule: Q01DX009 (ip), vehicle: saline with Tween-80): 135 % of control
- T/C [2]: 136 % of control
- T/C [3]: 125 and 135 % of control
- T/C (dose: 37.5 mg/kg/injection, schedule: Q01DX009 (ip), vehicle: saline with Tween-80): 130 % of control
- survivor count [4]: 6 of 6

SMILES: CC1C(=O)CCC2(C)C1CCC1C3CCC(O)C3(C)CCC12 (stereo not given)
- survivor count (dose: 100.0 mg/kg/injection, schedule: Q01DX009 (ip), vehicle: saline with Tween-80): 6 of 6
- survivor count [5]: 6 of 6
- survivor count [6]: 6 of 6

SMILES: CCC(C)C1NC(=O)C(NC(=O)c2c3nc4c(C(=O)NC5C(=O)NC(C(C)C)C(=O)N6CCCC6C(=O)N(C)CC(=O)N(C)C(C(C)C)C(=O)OC5C)ccc(C)c4oc-3c(C)c(=O)c2N)C(C)OC(=O)C(C(C)C)N(C)C(=O)CN(C)C(=O)C2CCCN2C1=O (stereo not given) (I: TIP[Sar][NMeV] / II: TVP[Sar][NMeV]; ester I:1-I:C, II:1-II:C; linker I:N-II:N via Actinocin(1to9); configuration not given here)
- survivor count (dose: 0.2 mg/kg/injection, schedule: Q01DX010 (ip), vehicle: saline): 6 of 6
- survivor count (dose: 0.4 mg/kg/injection, schedule: Q01DX010 (ip), vehicle: saline): 3 of 6
- survivor count (dose: 1.6 mg/kg/injection, schedule: Q01DX001 (ip), vehicle: water): 1 of 10
- T/C (dose: 6.3 micrograms/kg/injection, schedule: Q04DX003 (ip), vehicle: saline): 131 % of control
- T/C (dose: 12.5 micrograms/kg/injection, schedule: Q01DX001 (ip), vehicle: saline): 131 % of control
- T/C (dose: 12.5 micrograms/kg/injection, schedule: Q04DX003 (ip), vehicle: saline): 145 % of control
- T/C (dose: 25.0 micrograms/kg/injection, schedule: Q01DX001 (ip), vehicle: saline): 145 % of control
- survivor count (dose: 400.0 micrograms/kg/injection, schedule: Q01DX010 (ip), vehicle: saline): 6 of 6

SMILES: ClCCN(CCCl)c1ccc(CNCCCNCc2ccc(N(CCCl)CCCl)cc2)cc1
- T/C (dose: 1.65 mg/kg/injection, schedule: Q01DX009 (ip), vehicle: Klucel (hydroxypropylcellulose) (HPC)): 136 % of control
- T/C (dose: 1.65 mg/kg/injection, schedule: Q01DX009 (ip), vehicle: saline sonified): 145 % of control
- T/C (dose: 2.5 mg/kg/injection, schedule: Q01DX009 (ip), vehicle: Klucel (hydroxypropylcellulose) (HPC)): 136 % of control
- T/C (dose: 3.75 mg/kg/injection, schedule: Q01DX009 (ip), vehicle: Klucel (hydroxypropylcellulose) (HPC)): 145 % of control

SMILES: CCCCCCCCCCCCCCCC(N)=O
- survivor count (dose: 25.0 mg/kg/injection, schedule: Q01DX009 (ip), vehicle: gum acacia): 6 of 6
- survivor count (dose: 100.0 mg/kg/injection, schedule: Q01DX009 (ip), vehicle: gum acacia): 6 of 6
- survivor count (dose: 200.0 mg/kg/injection, schedule: Q01DX009 (ip), vehicle: gum acacia): 6 of 6
- survivor count (dose: 400.0 mg/kg/injection, schedule: Q01DX009 (ip), vehicle: gum acacia): 6 of 6

SMILES: CC(=O)c1ccccc1-n1c(C)ccc1C
- T/C (dose: 400.0 mg/kg/injection, schedule: Q01DX009 (ip), vehicle: saline + alcohol): 134 % of control

From PubChem BioAssay AID328 (DTP/NCI, 2004)
